This is one part of the list.
What was measured:
Assay in all cases: NMR binding call after quantification (hit when 2 of 3 NMR criteria are met) (binary (1 = binding, 0 = not binding)); higher = binding
Conditions in all cases: RNA concentration 10 µM; fragment concentration 200 µM; 293 K
SARS-CoV-2 5'-UTR RNA = system: SARS-CoV-2 5'-UTR RNA
SARS-CoV-2 5_SL1 RNA = system: SARS-CoV-2 5_SL1 RNA
SARS-CoV-2 5_SL1234 RNA = system: SARS-CoV-2 5_SL1234 RNA
SARS-CoV-2 5_SL2+3 RNA = system: SARS-CoV-2 5_SL2+3 RNA
SARS-CoV-2 5_SL4 RNA = system: SARS-CoV-2 5_SL4 RNA
SARS-CoV-2 5_SL5 RNA = system: SARS-CoV-2 5_SL5 RNA
SARS-CoV-2 5_SL5a RNA = system: SARS-CoV-2 5_SL5a RNA
SARS-CoV-2 5_SL5b+c RNA = system: SARS-CoV-2 5_SL5b+c RNA
SARS-CoV-2 5_SL5stem RNA = system: SARS-CoV-2 5_SL5stem RNA
SARS-CoV-2 5_SL6 RNA = system: SARS-CoV-2 5_SL6 RNA

Measured: NMR binding call

COc1cc(C(=O)O)cc(OC)c1OC
0: all assays above

CC1C(O)CCCN1Cc1ccccc1 (stereo not given)
0: all assays above

CCNC(=O)c1c[nH]nn1
0: all assays above

COc1ccccc1N1CCN(CC#N)CC1
0: all assays above

CC(=O)N1CCCC(O)(C(=O)O)C1 (stereo not given)
0: all assays above

c1ccc2c(CN3CCCCCC3)c[nH]c2c1
0: all assays above

CC(C)NC(=O)N(C)C1CCS(=O)(=O)C1 (stereo not given)
0: all assays above

CNC1CCCCC1S(C)(=O)=O (stereo not given)
0: all assays above

C1CN(CC2CCOCC2)CCN1
0: all assays above

Some of these compounds in order of count of non-hydrogen atoms, falling:
c1ccc2c(CN3CCCCCC3)c[nH]c2c1
0: all assays above

CC(C)NC(=O)N(C)C1CCS(=O)(=O)C1 (stereo not given)
0: all assays above

C1CN(CC2CCOCC2)CCN1
0: all assays above

The list continues.

Cc1cc(NC(=O)CSc2ccccc2)no1
0: all assays above

c1cnc(N2CCC3(CCOC3)C2)cn1 (stereo not given)
0: all assays above

COCC(=O)NCc1ccccc1
0: all assays above

CC1(C)CN(c2ncccc2F)CC1O (stereo not given)
0: all assays above

CC1CN(C(=O)c2cnccn2)CCO1 (stereo not given)
0: all assays above

CC(=O)NC(C)c1nnc2ccccn12 (stereo not given)
0: all assays above

CC(C)CC(=O)NCc1ccc2c(c1)OCO2
0: all assays above

From the supplement of paper PMC8426693
